No constants are given. Whether binding was seen depends on the method and setting. In cells and extracts the contact can be indirect. A yes stands for co-enrichment or nearness to the bait. Other partners may have been found.

Results on three molecules are retold here after publication PMC10270597.

The chains are these.
B1: HSD17B10 (protein, UniProt Q99714 1-261)
chain: MAAACRSVKGLVAVITGGASGLGLATAERLVGQGASAVLLDLPNSGGEAQAKKLGNNCVFAPADVTSEKDVQTALALAKGKFGRVDVAVNCAGIAVASKTYNLKKGQTHTLEDFQRVLDVNLMGTFNVIRLVAGEMGQNEPDQGGQRGVIINTASVAAFEGQVGQAAYSASKGGIVGMTLPIARDLAPIGIRVMTIAPGLFGTPLLTSLPEKVCNFLASQVPFPSRLGDPAEYAHLVQAIIENPFLNGEVIRLDGAIRMQP
B2: ANKFY1 (protein, UniProt Q9P2R3 1-1169)
chain: MAEEEVAKLEKHLMLLRQEYVKLQKKLAETEKRCALLAAQANKESSSESFISRLLAIVADLYEQEQYSDLKIKVGDRHISAHKFVLAARSDSWSLANLSSTKELDLSDANPEVTMTMLRWIYTDELEFREDDVFLTELMKLANRFQLQLLRERCEKGVMSLVNVRNCIRFYQTAEELNASTLMNYCAEIIASHWDDLRKEDFSSMSAQLLYKMIKSKTEYPLHKAIKVEREDVVFLYLIEMDSQLPGKLNEADHNGDLALDLALSRRLESIATTLVSHKADVDMVDKSGWSLLHKGIQRGDLFAATFLIKNGAFVNAATLGAQETPLHLVALYSSKKHSADVMSEMAQIAEALLQAGANPNMQDSKGRTPLHVSIMAGNEYVFSQLLQCKQLDLELKDHEGSTALWLAVQHITVSSDQSVNPFEDVPVVNGTSFDENSFAARLIQRGSHTDAPDTATGNCLLQRAAGAGNEAAALFLATNGAHVNHRNKWGETPLHTACRHGLANLTAELLQQGANPNLQTEEALPLPKEAASLTSLADSVHLQTPLHMAIAYNHPDVVSVILEQKANALHATNNLQIIPDFSLKDSRDQTVLGLALWTGMHTIAAQLLGSGAAINDTMSDGQTLLHMAIQRQDSKSALFLLEHQADINVRTQDGETALQLAIRNQLPLVVDAICTRGADMSVPDEKGNPPLWLALANNLEDIASTLVRHGCDATCWGPGPGGCLQTLLHRAIDENNEPTACFLIRSGCDVNSPRQPGANGEGEEEARDGQTPLHLAASWGLEETVQCLLEFGANVNAQDAEGRTPIHVAISSQHGVIIQLLVSHPDIHLNVRDRQGLTPFACAMTFKNNKSAEAILKRESGAAEQVDNKGRNFLHVAVQNSDIESVLFLISVHANVNSRVQDASKLTPLHLAVQAGSEIIVRNLLLAGAKVNELTKHRQTALHLAAQQDLPTICSVLLENGVDFAAVDENGNNALHLAVMHGRLNNIRVLLTECTVDAEAFNLRGQSPLHILGQYGKENAAAIFDLFLECMPGYPLDKPDADGSTVLLLAYMKGNANLCRAIVRSGARLGVNNNQGVNIFNYQVATKQLLFRLLDMLSKEPPWCDGSYCYECTARFGVTTRKHHCRHCGRLLCHKCSTKEIPIIKFDLNKPVRVCNICFDVLTLGGVS
B3: TAB1 (protein, UniProt Q15750 1-504)
chain: MAAQRRSLLQSEQQPSWTDDLPLCHLSGVGSASNRSYSADGKGTESHPPEDSWLKFRSENNCFLYGVFNGYDGNRVTNFVAQRLSAELLLGQLNAEHAEADVRRVLLQAFDVVERSFLESIDDALAEKASLQSQLPEGVPQHQLPPQYQKILERLKTLEREISGGAMAVVAVLLNNKLYVANVGTNRALLCKSTVDGLQVTQLNVDHTTENEDELFRLSQLGLDAGKIKQVGIICGQESTRRIGDYKVKYGYTDIDLLSAAKSKPIIAEPEIHGAQPLDGVTGFLVLMSEGLYKALEAAHGPGQANQEIAAMIDTEFAKQTSLDAVAQAVVDRVKRIHSDTFASGGERARFCPRHEDMTLLVRNFGYPLGEMSQPTPSPAPAAGGRVYPVSVPYSSAQSTSKTSVTLSLVMPSQGQMVNGAHSASTLDEATPTLTNQSPTLTLQSTNTHTQSSSSSSDGGLFRSRPAHSLPPGEDGRVEPYVDFAEFYRLWSVDHGEQSVVTAP

The target in this test is Flag tagged HEV ORF1 protein (ORF1-Flag) (hepatitis E virus (HEV)). Briefly: affinity purification with mass spectrometry; SILAC-labelled HepG2C3A cells expressing ORF1-Flag or GFP-Flag; lysates (50 mM Tris-HCl pH 7.5, 150 mM NaCl, 1 mM EDTA, 1% NP-40) on anti-Flag M2 magnetic beads overnight at 4°C; light and heavy eluates mixed, Orbitrap Fusion MS; hits ORF1/GFP fold change>3 and score>5.
On to B1, for which the binding result is recorded as “binds”.

On to B2, for which the binding result is reported as “binds”.

As for B3, the binding result was “binds”.
